Test results from the supplement of paper PMC12819154, “High-throughput peptide-centric local stability assay extends protein–ligand identification to membrane proteins, tissues and bacteria” (Nature Structural & Molecular Biology, 2025).
The entries are a selection whose mix differs from that of the whole data set. Most entries show no effect beyond the scatter of the controls.

The chains behind the UniProt entries cited, without tags or fusion partners. Where a name states a change or a piece, a line headed by the entry shows the natural chain unless it says otherwise.
UniProt P31224: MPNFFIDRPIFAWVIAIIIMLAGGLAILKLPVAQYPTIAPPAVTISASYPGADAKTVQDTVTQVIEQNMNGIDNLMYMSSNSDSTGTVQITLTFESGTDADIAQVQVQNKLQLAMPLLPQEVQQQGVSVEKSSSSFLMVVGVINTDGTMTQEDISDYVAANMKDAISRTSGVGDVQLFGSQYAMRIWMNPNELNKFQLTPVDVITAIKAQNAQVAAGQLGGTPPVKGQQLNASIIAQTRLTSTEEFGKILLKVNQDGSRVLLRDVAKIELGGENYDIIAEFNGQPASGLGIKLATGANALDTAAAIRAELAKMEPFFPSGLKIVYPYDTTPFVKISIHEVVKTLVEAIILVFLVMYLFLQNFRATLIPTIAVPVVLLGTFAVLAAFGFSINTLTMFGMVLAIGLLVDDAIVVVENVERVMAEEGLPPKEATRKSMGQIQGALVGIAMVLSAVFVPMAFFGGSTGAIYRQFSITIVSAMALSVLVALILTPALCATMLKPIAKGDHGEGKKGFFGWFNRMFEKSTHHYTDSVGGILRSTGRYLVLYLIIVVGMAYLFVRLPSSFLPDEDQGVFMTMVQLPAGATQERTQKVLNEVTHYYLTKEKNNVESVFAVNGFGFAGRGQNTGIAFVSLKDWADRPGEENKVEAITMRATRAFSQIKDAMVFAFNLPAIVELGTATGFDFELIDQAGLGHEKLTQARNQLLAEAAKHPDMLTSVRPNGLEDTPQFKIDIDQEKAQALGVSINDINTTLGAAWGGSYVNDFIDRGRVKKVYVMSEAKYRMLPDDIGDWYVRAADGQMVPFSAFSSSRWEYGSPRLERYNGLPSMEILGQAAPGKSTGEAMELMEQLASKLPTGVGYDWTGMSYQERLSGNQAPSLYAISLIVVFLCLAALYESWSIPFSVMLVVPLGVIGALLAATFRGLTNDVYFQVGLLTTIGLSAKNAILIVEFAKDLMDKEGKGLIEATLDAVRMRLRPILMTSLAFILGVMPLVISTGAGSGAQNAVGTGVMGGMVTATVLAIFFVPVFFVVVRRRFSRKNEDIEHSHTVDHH
UniProt P33360: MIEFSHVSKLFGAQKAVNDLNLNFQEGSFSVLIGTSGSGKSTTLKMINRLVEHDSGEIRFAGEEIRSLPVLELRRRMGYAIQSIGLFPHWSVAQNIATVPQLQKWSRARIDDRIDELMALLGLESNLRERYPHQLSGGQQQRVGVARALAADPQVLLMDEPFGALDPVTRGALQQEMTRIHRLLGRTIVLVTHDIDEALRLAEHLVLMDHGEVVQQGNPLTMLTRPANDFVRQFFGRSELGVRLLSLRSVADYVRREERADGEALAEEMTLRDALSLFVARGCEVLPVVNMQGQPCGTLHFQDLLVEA
UniProt P33218: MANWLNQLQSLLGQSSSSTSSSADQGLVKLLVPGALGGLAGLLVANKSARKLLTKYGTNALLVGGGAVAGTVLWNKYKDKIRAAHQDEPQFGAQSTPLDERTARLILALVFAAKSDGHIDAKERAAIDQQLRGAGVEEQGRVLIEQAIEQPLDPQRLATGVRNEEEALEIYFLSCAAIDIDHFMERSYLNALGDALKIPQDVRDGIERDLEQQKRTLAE
UniProt P37641: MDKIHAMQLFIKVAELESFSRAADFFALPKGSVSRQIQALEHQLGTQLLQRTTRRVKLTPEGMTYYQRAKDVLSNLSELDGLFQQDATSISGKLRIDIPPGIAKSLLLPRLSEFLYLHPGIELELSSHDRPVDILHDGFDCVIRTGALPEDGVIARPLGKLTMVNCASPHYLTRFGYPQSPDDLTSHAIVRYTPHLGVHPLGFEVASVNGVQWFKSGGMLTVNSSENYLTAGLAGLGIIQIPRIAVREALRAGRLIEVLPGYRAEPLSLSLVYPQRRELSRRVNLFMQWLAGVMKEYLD
UniProt P31130: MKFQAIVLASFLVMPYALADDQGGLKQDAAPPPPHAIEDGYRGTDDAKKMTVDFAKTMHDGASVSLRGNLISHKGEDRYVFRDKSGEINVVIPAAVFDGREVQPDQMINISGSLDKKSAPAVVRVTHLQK
UniProt P37679: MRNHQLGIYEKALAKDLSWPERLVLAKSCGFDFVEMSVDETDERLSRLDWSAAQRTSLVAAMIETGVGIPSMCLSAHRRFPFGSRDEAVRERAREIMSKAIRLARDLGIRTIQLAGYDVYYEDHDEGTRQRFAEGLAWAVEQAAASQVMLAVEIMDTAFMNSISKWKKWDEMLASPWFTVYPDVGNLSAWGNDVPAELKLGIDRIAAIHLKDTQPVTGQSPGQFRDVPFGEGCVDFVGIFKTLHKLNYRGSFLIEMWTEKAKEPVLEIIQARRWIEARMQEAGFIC
UniProt P32108: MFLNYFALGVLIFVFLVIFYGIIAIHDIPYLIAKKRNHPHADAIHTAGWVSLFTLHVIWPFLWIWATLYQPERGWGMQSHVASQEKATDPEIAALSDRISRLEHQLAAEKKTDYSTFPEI
UniProt P37325: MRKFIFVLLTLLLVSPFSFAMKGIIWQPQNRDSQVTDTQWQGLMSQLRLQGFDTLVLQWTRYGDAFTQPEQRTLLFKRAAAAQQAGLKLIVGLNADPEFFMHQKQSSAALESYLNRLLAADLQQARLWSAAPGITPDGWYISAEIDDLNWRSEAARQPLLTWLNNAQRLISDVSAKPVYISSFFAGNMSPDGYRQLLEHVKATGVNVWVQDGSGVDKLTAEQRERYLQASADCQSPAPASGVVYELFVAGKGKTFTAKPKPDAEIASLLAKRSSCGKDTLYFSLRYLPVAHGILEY
UniProt P32162: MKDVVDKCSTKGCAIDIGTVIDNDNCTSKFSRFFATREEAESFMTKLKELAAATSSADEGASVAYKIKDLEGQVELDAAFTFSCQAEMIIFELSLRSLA
UniProt P39321: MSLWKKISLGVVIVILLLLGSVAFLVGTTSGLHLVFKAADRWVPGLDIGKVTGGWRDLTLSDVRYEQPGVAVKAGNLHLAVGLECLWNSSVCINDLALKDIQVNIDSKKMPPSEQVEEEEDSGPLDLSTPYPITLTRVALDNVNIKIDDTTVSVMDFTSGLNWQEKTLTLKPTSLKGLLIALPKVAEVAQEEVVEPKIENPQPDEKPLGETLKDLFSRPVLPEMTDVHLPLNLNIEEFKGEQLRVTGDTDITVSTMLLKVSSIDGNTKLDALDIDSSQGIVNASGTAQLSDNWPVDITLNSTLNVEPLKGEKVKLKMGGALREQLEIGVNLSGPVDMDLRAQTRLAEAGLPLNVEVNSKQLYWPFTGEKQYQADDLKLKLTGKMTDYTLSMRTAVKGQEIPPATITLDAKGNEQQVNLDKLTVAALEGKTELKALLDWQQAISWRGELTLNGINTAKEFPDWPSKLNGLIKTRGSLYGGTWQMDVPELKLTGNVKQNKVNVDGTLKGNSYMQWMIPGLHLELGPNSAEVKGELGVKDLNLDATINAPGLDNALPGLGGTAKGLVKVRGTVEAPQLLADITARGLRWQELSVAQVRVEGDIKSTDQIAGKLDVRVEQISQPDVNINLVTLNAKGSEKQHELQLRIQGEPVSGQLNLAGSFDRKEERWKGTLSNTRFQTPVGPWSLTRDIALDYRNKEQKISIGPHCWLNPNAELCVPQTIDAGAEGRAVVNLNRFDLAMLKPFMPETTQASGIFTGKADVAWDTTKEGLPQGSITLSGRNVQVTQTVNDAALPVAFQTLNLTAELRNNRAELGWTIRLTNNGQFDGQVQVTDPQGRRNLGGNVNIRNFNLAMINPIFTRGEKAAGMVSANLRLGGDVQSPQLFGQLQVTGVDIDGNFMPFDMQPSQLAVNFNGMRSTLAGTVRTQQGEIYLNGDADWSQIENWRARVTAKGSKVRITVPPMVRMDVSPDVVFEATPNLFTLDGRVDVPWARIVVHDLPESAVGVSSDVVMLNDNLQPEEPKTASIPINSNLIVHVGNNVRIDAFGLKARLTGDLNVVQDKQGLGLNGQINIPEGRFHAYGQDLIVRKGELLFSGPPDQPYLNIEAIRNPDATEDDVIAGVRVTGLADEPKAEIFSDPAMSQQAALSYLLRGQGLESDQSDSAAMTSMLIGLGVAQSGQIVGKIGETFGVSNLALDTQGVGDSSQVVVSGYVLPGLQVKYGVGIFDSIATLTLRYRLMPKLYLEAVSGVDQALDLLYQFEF
UniProt P37690: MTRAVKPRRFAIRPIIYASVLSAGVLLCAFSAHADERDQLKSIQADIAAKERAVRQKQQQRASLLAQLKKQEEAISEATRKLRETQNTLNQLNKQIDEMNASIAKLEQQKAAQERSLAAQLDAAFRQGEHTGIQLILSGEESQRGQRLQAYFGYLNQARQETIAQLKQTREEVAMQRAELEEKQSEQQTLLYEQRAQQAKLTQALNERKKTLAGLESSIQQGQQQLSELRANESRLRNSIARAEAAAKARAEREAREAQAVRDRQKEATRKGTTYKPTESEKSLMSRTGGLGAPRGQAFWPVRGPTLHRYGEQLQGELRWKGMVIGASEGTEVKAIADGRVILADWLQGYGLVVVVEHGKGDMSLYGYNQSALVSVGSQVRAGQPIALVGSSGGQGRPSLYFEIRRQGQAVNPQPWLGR
UniProt P33666: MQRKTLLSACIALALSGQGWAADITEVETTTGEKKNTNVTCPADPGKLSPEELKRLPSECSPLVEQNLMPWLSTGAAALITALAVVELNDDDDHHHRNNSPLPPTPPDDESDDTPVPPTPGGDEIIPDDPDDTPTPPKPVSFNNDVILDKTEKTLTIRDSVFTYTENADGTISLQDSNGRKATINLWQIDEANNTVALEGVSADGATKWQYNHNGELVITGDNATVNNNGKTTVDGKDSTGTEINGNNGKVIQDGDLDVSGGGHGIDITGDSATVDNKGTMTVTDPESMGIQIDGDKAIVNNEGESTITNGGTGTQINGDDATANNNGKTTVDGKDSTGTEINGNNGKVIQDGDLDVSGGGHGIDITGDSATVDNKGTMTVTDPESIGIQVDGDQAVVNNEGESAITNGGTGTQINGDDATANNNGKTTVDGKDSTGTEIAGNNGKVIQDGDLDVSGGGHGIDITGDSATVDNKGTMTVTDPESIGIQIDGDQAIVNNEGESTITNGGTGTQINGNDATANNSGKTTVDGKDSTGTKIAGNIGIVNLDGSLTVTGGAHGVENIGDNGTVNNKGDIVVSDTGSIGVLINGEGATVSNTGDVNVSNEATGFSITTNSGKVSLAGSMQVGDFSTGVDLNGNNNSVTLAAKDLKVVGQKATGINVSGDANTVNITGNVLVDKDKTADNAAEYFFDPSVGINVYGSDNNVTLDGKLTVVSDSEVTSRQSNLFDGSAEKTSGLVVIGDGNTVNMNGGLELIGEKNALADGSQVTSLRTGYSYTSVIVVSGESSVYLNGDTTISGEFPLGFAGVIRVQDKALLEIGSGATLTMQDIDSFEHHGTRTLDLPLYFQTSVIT
UniProt P33013: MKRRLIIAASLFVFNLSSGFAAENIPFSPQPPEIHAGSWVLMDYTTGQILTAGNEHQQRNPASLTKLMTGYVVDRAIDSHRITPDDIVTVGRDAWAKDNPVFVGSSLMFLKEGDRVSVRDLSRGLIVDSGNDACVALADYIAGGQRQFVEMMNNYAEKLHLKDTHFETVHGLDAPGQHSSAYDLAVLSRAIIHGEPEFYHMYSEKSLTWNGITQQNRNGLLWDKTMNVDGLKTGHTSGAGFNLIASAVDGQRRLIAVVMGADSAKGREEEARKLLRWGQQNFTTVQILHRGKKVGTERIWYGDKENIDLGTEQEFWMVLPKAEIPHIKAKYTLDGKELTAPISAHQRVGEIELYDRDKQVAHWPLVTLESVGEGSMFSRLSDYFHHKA
UniProt P36677: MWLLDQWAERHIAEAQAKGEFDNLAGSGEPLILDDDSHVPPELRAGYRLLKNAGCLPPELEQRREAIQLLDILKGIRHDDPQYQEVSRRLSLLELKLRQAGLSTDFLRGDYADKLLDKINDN
UniProt P38392: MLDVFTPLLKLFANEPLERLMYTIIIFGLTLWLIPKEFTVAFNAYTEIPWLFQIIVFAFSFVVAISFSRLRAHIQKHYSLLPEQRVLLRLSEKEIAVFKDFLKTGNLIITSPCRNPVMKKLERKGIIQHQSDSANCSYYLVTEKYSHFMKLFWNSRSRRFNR
UniProt P37195: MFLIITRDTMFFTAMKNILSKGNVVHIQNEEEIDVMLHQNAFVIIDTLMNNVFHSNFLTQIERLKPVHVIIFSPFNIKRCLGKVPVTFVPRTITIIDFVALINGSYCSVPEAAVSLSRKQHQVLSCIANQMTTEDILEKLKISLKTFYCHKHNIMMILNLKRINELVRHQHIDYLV
UniProt P37610: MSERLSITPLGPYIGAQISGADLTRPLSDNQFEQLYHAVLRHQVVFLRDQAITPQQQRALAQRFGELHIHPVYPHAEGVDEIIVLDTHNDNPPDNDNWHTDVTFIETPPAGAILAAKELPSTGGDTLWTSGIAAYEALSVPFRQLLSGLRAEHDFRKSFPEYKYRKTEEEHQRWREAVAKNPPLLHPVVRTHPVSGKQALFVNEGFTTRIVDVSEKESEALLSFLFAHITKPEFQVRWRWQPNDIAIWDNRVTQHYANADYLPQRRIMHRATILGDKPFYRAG
UniProt P39212: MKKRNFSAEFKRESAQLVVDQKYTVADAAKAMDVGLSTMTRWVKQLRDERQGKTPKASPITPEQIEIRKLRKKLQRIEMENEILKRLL

compound: Nc1ncnc2c1ncn2[C@@H]1O[C@H](COP(=O)(O)OP(=O)(O)OP(=O)(O)O)[C@@H](O)[C@H]1O [adenosine 5'-triphosphate]; test: log2 fold change of tryptic peptide abundance, ligand vs vehicle (limited proteolysis) (log2 ratio); higher = more trypsin-susceptible (destabilized); details: ligand concentration: 5 mM; sample: E. coli desalted lysate; replicate design: treated before aliquoting
Description: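 HT-PELSA: desalted E. coli K-12 BW25113 lysate (with 12 mM MgCl2) incubated with 5 mM ATP (pH 7) or water for 30 min at 25 C, then a 4 min trypsin pulse at 22 C. Peptides were quantified by DIA-MS (4 replicates). Value is the peptide log2 fold change (treated/control); negative = stabilized. Scale: negative = ligand-stabilized region.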
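Also: lysate desalted by size exclusion to strip endogenous ATP, peptide intensities built from DIA-NN precursor signals, and peptides missing any value discarded before comparison.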

Target	log2 fold change
UniProt P37590 (peptide sequence: HVLMLCDAGGAIK, peptide start residue: 17)	-0.0306
UniProt P31224 (peptide sequence: KNEDIEHSHTVDHH, peptide start residue: 1036)	-0.57
UniProt P33360 (peptide sequence: LVEHDSGEIR, peptide start residue: 50)	-0.333
UniProt P31828 (peptide sequence: PFLLANTR, peptide start residue: 184)	0.516
UniProt P33218 (peptide sequence: ERAAIDQQLR, peptide start residue: 123)	0.969
UniProt P37641 (peptide sequence: AADFFALPK, peptide start residue: 22)	0.41
UniProt P33219 (peptide sequence: GKSADIHYQVSVDCK, peptide start residue: 95)	0.298
UniProt P38036 (peptide sequence: FNHLFQSIK, peptide start residue: 379)	0.55
UniProt P37757 (peptide sequence: ELGHSETAFLLHSDDSDVR, peptide start residue: 41)	0.748
UniProt P31130 (peptide sequence: QDAAPPPPHAIEDGYR, peptide start residue: 27)	-0.297
UniProt P37679 (peptide sequence: DLSWPER, peptide start residue: 16)	-0.205
UniProt P31131 (peptide sequence: LTTAESCTGGK, peptide start residue: 35)	-0.336
UniProt P33354 (peptide sequence: IQFASIGATTKEDAAK, peptide start residue: 61)	-0.00177
UniProt P32108 (peptide sequence: ATDPEIAALSDR, peptide start residue: 87)	0.254
UniProt P31979 (peptide sequence: EILEDYAGGMRDGLKFK, peptide start residue: 272)	-0.234
UniProt P37325 (peptide sequence: TFTAKPKPDAEIASLLAK, peptide start residue: 254)	0.375
UniProt P32162 (peptide sequence: DVVDKCSTK, peptide start residue: 3)	-0.384
UniProt P39321 (peptide sequence: MTDYTLSMR, peptide start residue: 384)	-0.614
UniProt P37690 (peptide sequence: YGEQLQGELR, peptide start residue: 310)	1.02
UniProt P37127 (peptide sequence: YISDQALAK, peptide start residue: 306)	-0.216

Target	log2 fold change
UniProt P33666 (peptide sequence: DSTGTEINGNNGK, peptide start residue: 238)	-0.0352
UniProt P31134 (peptide sequence: LLLLDEPMGALDKK, peptide start residue: 170)	-0.66
UniProt P33013 (peptide sequence: LSDYFHHKA, peptide start residue: 380)	-0.811
UniProt P36677 (peptide sequence: HIAEAQAK, peptide start residue: 11)	-0.474
UniProt P33358 (peptide sequence: TLLVWCGENR, peptide start residue: 211)	-0.422
UniProt P38392 (peptide sequence: TGNLIITSPCR, peptide start residue: 104)	-0.384
UniProt P32140 (peptide sequence: GLFNATVR, peptide start residue: 280)	-0.0646
UniProt P32669 (peptide sequence: DAQGMVEEAKR, peptide start residue: 64)	0.561
UniProt P37330 (peptide sequence: ISSQHIANWLR, peptide start residue: 637)	-0.775
UniProt P38489 (peptide sequence: LVVDQEDADGRFATPEAK, peptide start residue: 97)	0.252
UniProt P33363 (peptide sequence: HFAAYGAVEGGK, peptide start residue: 209)	-0.812
UniProt P33352 (peptide sequence: LYIESPR, peptide start residue: 197)	-0.0731
UniProt P37351 (peptide sequence: HEIVAHLVER, peptide start residue: 17)	0.646
UniProt P37195 (peptide sequence: HNIMMILNLKR, peptide start residue: 152)	-0.303
UniProt P32685 (peptide sequence: VLTNSETNSIK, peptide start residue: 33)	0.216
UniProt P37610 (peptide sequence: VTQHYANADYLPQRR, peptide start residue: 252)	-0.495
UniProt P32176 (peptide sequence: ASIFHIEGDPDHPVNR, peptide start residue: 73)	0.249
UniProt P39212 (peptide sequence: ESAQLVVDQK, peptide start residue: 13)	-0.26
UniProt P31678 (peptide sequence: GMAFALHYR, peptide start residue: 126)	0.474
UniProt P39333 (peptide sequence: ILIIGSVNGDR, peptide start residue: 127)	0.414

At a glance, part of the list above.
Target	log2 fold change
UniProt P37325 (peptide sequence: TFTAKPKPDAEIASLLAK, peptide start residue: 254)	0.375
UniProt P32162 (peptide sequence: DVVDKCSTK, peptide start residue: 3)	-0.384
UniProt P39321 (peptide sequence: MTDYTLSMR, peptide start residue: 384)	-0.614
